Test results from US6140058.
Negatives hold for the conditions tested.

Target: p53 wild type (Homo sapiens) (UniProt P04637)
Test: EMSA
Settings: purified recombinant protein, protein details: bacterial expression, Fraction III, label: 32P

“AGCTTAGACATGCCTAGACATGCCTA / AGCTTAGGCATGTCTAGGCATGTCTA [PG p53 consensus site]”: no binding (PAb421-activated then NEM, inhibited); no binding (latent, no activating protein).
